Laboratory results taken from PubChem BioAssay AID504467 (National Center for Advancing Translational Sciences (NCATS), 2011).
Among all 330,000 compounds or so, about 7,700 (2.3%) were called active. This list was built around the results that the source calls inconclusive (neither active nor inactive); the mix of calls is not that of the screen. The call rests on the fitted dose curve; in most records, active means well fitted inhibition curve with a large enough effect; inconclusive means small, poorly fitted or top-dose-only effect, or effect the other way; inactive means flat fitted curve, though single readings scatter. Where the call is inconclusive, the potency comes from a doubtful curve fit.

Assay: qHTS screen for small molecules that inhibit ELG1-dependent DNA repair in human embryonic kidney (HEK293T) cells expressing luciferase-tagged ELG1; further: nearly all actives have a fitted effect of over 55% in size
Conditions: HEK293T ELG1-luciferase reporter, luminescence, 16 h, DNA damage induced by 5-fluorouridine; series mostly up to 46.1 µM
How it was run: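 In this reporter screen, reduction of luminescence relative to DMSO vehicle indicated activity. Compounds and 5-fluorouridine were added together to 2,000 cells per well, incubated for 16 hr at 37 °C, then developed with ONE-Glo.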
Potency means the concentration at half of the fitted maximal effect.

SMILES	Potency
COCCCn1c(-c2cccc(Cl)c2)nc2c1c(=O)[nH]c(=O)n2Cc1ccccc1	inconclusive: 20.6 µM [inhibitor, single point]
Cc1c(C(=O)OCC(=O)Nc2cccc(S(N)(=O)=O)c2)oc2c1ccc1ccccc12	inconclusive: 29.1 µM [inhibitor, single point]
CCN(c1ccc(NC(=O)c2ccc(N3CCCC3=O)cc2)cc1)C(C)C	inconclusive: 4.61 µM [inhibitor, single point]
CCc1cccc(NC(=S)N2CCC(c3ccccc3)C2)c1 (configuration not stated)	inconclusive: 29.1 µM [inhibitor, single point]
CCOC(=O)c1c(C)oc2ccc(NS(=O)(=O)c3cccs3)cc12	inconclusive: 8.2 µM [inhibitor, partial curve, poor fit]
CCN1CCN(c2ccc(S(=O)(=O)N3CCCCC3)cc2NC(=O)COc2cc(C)ccc2Cl)CC1	inconclusive: 25.9 µM [inhibitor, single point]
NNC(=S)Nc1ccc(OC(F)(F)F)cc1	inconclusive: 18.3 µM [inhibitor, partial curve]
Cc1ccc(-n2cc(CNCCCn3ccnc3C)c(-c3ccc(F)cc3)n2)cc1	inactive
COc1ccc(NC(=O)c2c(SC)nsc2SC)cc1	inconclusive: 5.17 µM [activator, partial curve, poor fit]
Cc1nc2ccc(NC(=O)c3cnc(Cl)c(Cl)c3)cc2s1	inconclusive: 11.6 µM [activator, partial curve]
COc1cc2c(cc1OC)[C@@H](NC(=O)COc1ccccc1)[C@H](OCc1ccccc1)C2	inconclusive: 23.1 µM [inhibitor, single point]
CCOC(=O)Cn1c(=N)n(CCOc2ccc(Br)cc2)c2ccccc21	inactive
Cn1cccc1C(C#N)c1ncc(C(F)(F)F)cc1Cl (configuration not stated)	inconclusive: 20.6 µM [inhibitor, single point]
Cn1c(=N)n(CC(=O)C(C)(C)C)c2ccccc21	inconclusive: 23.1 µM [activator, partial curve]
Cc1ccc(C(=O)OCC(=O)N2CCCCCC2)c(O)c1	inconclusive: 14.6 µM [activator, partial curve]
O=C(c1ccc(-c2ccccc2Cl)o1)N1CCCC(C(F)(F)F)C1 (configuration not stated)	inconclusive: 20.6 µM [activator, partial curve]
O=C(NCc1ccccc1)c1ccc(-c2ccccc2F)o1	inconclusive: 16.4 µM [activator, partial curve]
Cn1c(=O)c([N+](=O)[O-])c(Cl)c2ccccc21	inconclusive: 29.1 µM [activator, single point]
COc1ccccc1C(=O)NCCC(=O)NC1=NCCS1	inconclusive: 4.61 µM [inhibitor, full curve]
COc1ccc(OC)c(N(CC(=O)N2CCN(c3cc(Cl)ccc3C)CC2)S(C)(=O)=O)c1	inactive
O=C(O)CC/C(=N\Nc1ccc(S(=O)(=O)N2CCOCC2)cc1[N+](=O)[O-])c1cccs1	inconclusive: 23.1 µM [inhibitor, single point]
COc1ccccc1N1CCN(C(=S)Nc2ccc(F)cc2)CC1	inconclusive: 20.6 µM [inhibitor, partial curve, poor fit]
COc1ccccc1NC(=O)CN1CCN(CC(=O)Nc2ccc(F)cc2F)CC1	inconclusive: 16.4 µM [activator, single point]
CNC(=O)/C(C#N)=C/c1ccc(OCCOc2ccccc2)cc1	inconclusive: 29.1 µM [activator, single point]

Some of the entries above, reformatted:
SMILES | Potency
COc1ccccc1C(=O)NCCC(=O)NC1=NCCS1 | inconclusive: 4.61 µM [inhibitor, full curve]
COc1ccc(OC)c(N(CC(=O)N2CCN(c3cc(Cl)ccc3C)CC2)S(C)(=O)=O)c1 | inactive
O=C(O)CC/C(=N\Nc1ccc(S(=O)(=O)N2CCOCC2)cc1[N+](=O)[O-])c1cccs1 | inconclusive: 23.1 µM [inhibitor, single point]
COc1ccccc1N1CCN(C(=S)Nc2ccc(F)cc2)CC1 | inconclusive: 20.6 µM [inhibitor, partial curve, poor fit]

(further entries)

SMILES	Potency
CNC(=O)CC12CC3CC(CC(C3)C1)C2	inconclusive: 23.1 µM [activator, single point]
COc1cccc(C(=O)NCC2(c3ccccc3)CCCC2)c1	inconclusive: 13 µM [inhibitor, partial curve]
CN(c1ccccc1)S(=O)(=O)c1ccc(C(=O)Nc2nnc(C3CC3)o2)cc1	active: 10.3 µM
Cc1ccc(N2CC(C(=O)Nc3nc4ccc(S(C)(=O)=O)cc4s3)CC2=O)cc1 (configuration not stated)	inactive
COc1ccc(NC(=O)C/C(C)=N/NC(=O)c2ccncc2)c([N+](=O)[O-])c1	inactive
CCN(Cc1ccccc1)Cc1ccc(OCc2ccccc2)cc1	inactive
CCn1ccnc1CN(C)Cc1nc(-c2ccc3c(c2)OCO3)no1	inconclusive: 18.3 µM [activator, partial curve]
O=C(CSc1nnc(CNC(=O)c2ccco2)o1)Nc1ccc(F)cc1	inactive
O=C(O)CC(c1cccc(O)c1)N1Cc2ccccc2C1=O (configuration not stated)	inactive
Cc1cccc(NC(=O)c2ccccc2O)c1C	inconclusive: 6.51 µM [activator, partial curve]
Cc1csc(SCC(=O)NC(=O)C2CCCCC2)n1	inactive
COc1cccc(OC)c1CC1SC(=O)NC1=O (configuration not stated)	inconclusive: 2.59 µM [inhibitor, full curve, poor fit]
CCC(OC(=O)C(C)N1C(=O)C(=O)c2ccccc21)C(=O)Nc1ccccc1OC (configuration not stated)	inactive
COc1cc2[nH]c(C(=O)NCC3CCCO3)cc2c(OC)c1OC (configuration not stated)	inconclusive: 23.1 µM [activator, single point]
Cc1ccc(NC(=O)C(C)C(=O)Nc2ccc(C)cc2)cc1	inactive
COc1ccc(/C=N/NC(=O)c2ccc(NC(=O)c3ccccc3Br)cc2)cc1	inconclusive: 29.1 µM [inhibitor, single point]
O=C(Nc1ccc(Cl)cc1)Nc1nnc(Cc2ccc([N+](=O)[O-])cc2)s1	inconclusive: 32.6 µM [activator, partial curve, poor fit]
CC(C)(C)CC(=O)Nc1ccc(S(=O)(=O)N2CCCC2)cc1	inconclusive: 2.59 µM [inhibitor, partial curve, poor fit]
O=C(COc1ccccc1Cl)Nc1ccccc1C(=O)Nc1cccc(C(=O)O)c1	inconclusive: 23.1 µM [activator, single point]
C=CCSc1cc(C)nc2c(-c3ccccc3)c(C)nn12	inactive
COc1ccc(OC)c(/C=C/C(=O)Nc2ccc3c(c2)CCC3)c1	inactive
CC1CCN(C(=O)C2CCCN(c3ncnc4c3nc3n4CCCCC3)C2)CC1 (configuration not stated)	inactive
Cn1c(=O)c2c(nc(NCCc3ccccc3)n2Cc2ccccc2)n(C)c1=O	active: 23.1 µM
COc1cccc(-c2nnc(-c3ccc(C(F)(F)F)cc3)o2)c1OC	inconclusive: 20.6 µM [activator, partial curve]

SMILES	Potency
Cc1ccc(C(=O)OCC(=O)N2CC(C)OC(C)C2)cc1 (configuration not stated)	inactive
CC1(C(=O)OCC(=O)Nc2ccccc2)CC1(Cl)Cl (configuration not stated)	inconclusive: 16.4 µM [activator, partial curve]
O=C(Nc1cc(C(F)(F)F)ccc1N1CCOCC1)c1ccc(Cl)nc1	inconclusive: 20.6 µM [inhibitor, partial curve, poor fit]
C(=C\c1ccco1)/c1ccc2ccccc2n1	inconclusive: 2.59 µM [activator, full curve]
O=C(NC(=S)Nc1ccc2c(c1)OCCO2)c1cccc(Br)c1	inconclusive: 18.4 µM [activator, partial curve]
C/C(=N\NC(N)=O)c1cccc(Cl)c1	inactive
COc1cc2[nH]c(=O)n(CCCCCC(=O)N3CC=C(c4ccccc4)CC3)c(=O)c2cc1OC	active: 8.2 µM
CC1CC(=O)c2cnc(N3CCOCC3)nc2C1 (configuration not stated)	inconclusive: 29.1 µM [activator, partial curve, poor fit]
O=C(c1ccc(-c2nc3ccccc3s2)o1)N1CCN(c2ccccc2O)CC1	inactive
O=C(Nc1ccccc1Cl)c1cc(S(=O)(=O)N2CCCCC2)ccc1N1CCOCC1	inactive
CCOC(=O)CNC(=O)c1sc(NC(=O)c2cccc(F)c2)nc1C	inconclusive: 13 µM [activator, partial curve, poor fit]
CC1(c2nnc(-c3ccccc3)o2)CC(c2cccc(Cl)c2)=NO1 (configuration not stated)	inconclusive: 29.1 µM [inhibitor, single point]
CCOC(=O)N1CCN(C(=O)CSc2nc3c([nH]c4ccccc43)c(=O)n2C)CC1	active: 2.59 µM
COc1ccc(NC(=O)CSC2CCCCC2)cc1	inconclusive: 16.4 µM [activator, partial curve]
C=CC(COCc1ccccc1)N(Cc1ccc(OC)cc1)S(=O)(=O)c1ccccc1Br (configuration not stated)	inactive
COc1ccc(C(=O)Nc2ccccc2C(=O)NCCN2CCOCC2)cc1	inactive
Clc1ccc(-n2ncc3c(NCc4cccnc4)ncnc32)cc1Cl	inconclusive: 2.59 µM [activator, full curve]
CCCC(C(=O)Nc1cccc(S(=O)(=O)N2CCCC2)c1)c1ccccc1 (configuration not stated)	inconclusive: 11.2 µM [inhibitor, single point]
COc1cc(OC)c(S(=O)(=O)Nc2ccccc2N2CCCCC2)cc1NC(C)=O	inactive
O=C(NCc1ccccn1)[C@H]1C[C@@H]1[C@H](NP(=O)(c1ccccc1)c1ccccc1)c1ccccc1	inactive
CCN1C(=O)/C(=C\c2ccco2)C(C(=O)OC)=C1C	inactive
CCOC(=O)c1[nH]c2ccc(OC)cc2c1NC(=O)CCN1CCc2ccccc2C1	inconclusive: 25.9 µM [inhibitor, single point]
Cc1cccc(NC(=O)CN2CCN(C(=O)c3cccc(-n4cnnn4)c3)CC2)c1C	inactive
COC(=O)c1ccc(NC(=O)C(=O)c2cn(CC(=O)N3CCOCC3)c3ccccc23)cc1	inactive
